Binding data for one molecule are collected here from doi:10.1101/2021.11.29.470395.

Assay [1] has as its target nucleotide-devoid, full-length FtsZ from M. jannaschii (Methanocaldococcus jannaschii) (UniProt Q57816). Kind of assay: right angle light scattering at 350 nm.
For assay [2] the target is unchanged. Kind of assay: right angle light scattering at 350 nm. The source holds these as a separate data set.

Like-named read-outs stand apart in the source and are kept apart here. No constants are given. Whether binding was seen depends on the method and setting. Some entries that bind do so weakly or less than the wild type.

B1: nucleotide-devoid, full-length FtsZ from M. jannaschii (protein, UniProt Q57816 1-364)
chain: MKFLKNVLEEGSKLEEFNELELSPEDKELLEYLQQTKAKITVVGCGGAGNNTITRLKMEGIEGAKTVAINTDAQQLIRTKADKKILIGKKLTRGLGAGGNPKIGEEAAKESAEEIKAAIQDSDMVFITCGLGGGTGTGSAPVVAEISKKIGALTVAVVTLPFVMEGKVRMKNAMEGLERLKQHTDTLVVIPNEKLFEIVPNMPLKLAFKVADEVLINAVKGLVELITKDGLINVDFADVKAVMNNGGLAMIGIGESDSEKRAKEAVSMALNSPLLDVDIDGATGALIHVMGPEDLTLEEAREVVATVSSRLDPNATIIWGATIDENLENTVRVLLVITGVQSRIEFTDTGLKRKKLELTGIPKI
Turning to B1, the values for the binding entry in assay [1] and in assay [2] were “binds” and “no binding (condition: with 20 mM EDTA)”, respectively.
